The values that follow come from PMC8641240.

By UniProt entry, the sequences of proteins in these tests, tags left out.
UniProt Q8K3K8: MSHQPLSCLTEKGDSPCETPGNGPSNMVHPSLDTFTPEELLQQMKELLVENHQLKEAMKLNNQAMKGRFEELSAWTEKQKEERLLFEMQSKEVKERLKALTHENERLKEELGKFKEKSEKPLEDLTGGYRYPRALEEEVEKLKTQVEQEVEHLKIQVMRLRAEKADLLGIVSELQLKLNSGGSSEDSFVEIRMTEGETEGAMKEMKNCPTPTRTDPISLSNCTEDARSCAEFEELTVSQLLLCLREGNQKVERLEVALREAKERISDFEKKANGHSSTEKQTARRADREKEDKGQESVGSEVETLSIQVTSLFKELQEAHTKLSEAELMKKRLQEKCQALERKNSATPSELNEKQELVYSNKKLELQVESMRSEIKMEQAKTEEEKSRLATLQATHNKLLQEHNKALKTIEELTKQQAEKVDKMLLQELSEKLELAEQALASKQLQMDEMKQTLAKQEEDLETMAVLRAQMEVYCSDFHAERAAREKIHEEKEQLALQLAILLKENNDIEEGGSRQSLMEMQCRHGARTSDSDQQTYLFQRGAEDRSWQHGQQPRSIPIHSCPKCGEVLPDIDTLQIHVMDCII

These are yes or no findings as the source states them, for the method shown. In cells and extracts the contact can be indirect. Some binding calls cover weakened binding; strength is not graded here. Tags and fused reporters may be left off the sequences shown.

The assay deals with T1, Full-length Flag-RIPK1 (mouse) (UniProt Q60855).
T1 sequence: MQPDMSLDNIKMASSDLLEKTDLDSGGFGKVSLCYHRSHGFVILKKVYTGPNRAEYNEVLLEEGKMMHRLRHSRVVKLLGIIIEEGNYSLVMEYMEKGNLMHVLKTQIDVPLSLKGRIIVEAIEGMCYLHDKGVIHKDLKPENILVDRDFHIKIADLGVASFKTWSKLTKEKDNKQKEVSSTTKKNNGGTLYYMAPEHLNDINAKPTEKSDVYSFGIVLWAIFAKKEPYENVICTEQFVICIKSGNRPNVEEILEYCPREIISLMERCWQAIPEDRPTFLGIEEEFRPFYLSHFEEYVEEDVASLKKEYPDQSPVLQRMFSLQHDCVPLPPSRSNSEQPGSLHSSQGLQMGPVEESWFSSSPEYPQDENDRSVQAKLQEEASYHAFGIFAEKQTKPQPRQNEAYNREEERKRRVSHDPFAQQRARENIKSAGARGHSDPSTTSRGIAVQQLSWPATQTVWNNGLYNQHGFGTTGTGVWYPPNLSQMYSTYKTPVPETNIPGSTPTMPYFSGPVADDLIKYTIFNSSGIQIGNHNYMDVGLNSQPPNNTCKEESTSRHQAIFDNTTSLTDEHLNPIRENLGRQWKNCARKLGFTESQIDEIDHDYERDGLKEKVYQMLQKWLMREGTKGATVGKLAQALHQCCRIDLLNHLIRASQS
The assay is described as follows: co-IP; HEK293T cells cotransfected with HA-OPTN (or its truncation fragment) and Flag-RIPK1; lysate precipitated with anti-Flag antibody at 4 °C, captured on Dynabeads, blotted with anti-HA antibody.

Turning to “Full-length HA-OPTN (from UniProt Q8K3K8 1-584)”, the binding entry is on record as “binds”.
